The assay has as its target RasGRP1^CC (human RasGRP1 C-terminal coiled coil, residues 739-793) (human) (UniProt O95267). Kind of assay: crystal structure; RasGRP1^CC at 1.6 Å; 20 mM sodium acetate pH 3.6, 22% PEG 3350, 100 mM lithium sulfate, 0.4% formamide; two molecules in the asymmetric unit; both purified.

Experimental findings from publication PMC3728621, “Structural analysis of autoinhibition in the Ras-specific exchange factor RasGRP1” (eLife, 2013) are described below.

These are yes or no findings as the source states them, for the method shown. Some results given as binding are weak or reduced against the parent protein; the word gives no strength.

B1: RasGRP1^CC (human RasGRP1 C-terminal coiled coil, residues 739-793) (domain or fragment, UniProt O95267 739-793, looked up)
chain: ELRHLRLPTYQELEQEINTLKADNDALKIQLKYAQKKIESLQLEKSNHVLAQMEQ
notes: human RasGRP1 (full length 797 residues), residues 739-793, containing the predicted coiled coil (747-789); Parallel dimeric coiled coil; The model holds residues 745-793 (molecule A) and 745-786 (molecule B); also called C-terminal oligomerization domain; source: E. coli BL21(DE3), purified (HisTrap, tag removal with ULP1, second HisTrap, Superdex gel filtration); not shown: His6, N-terminal, …
As for B1, the binding result is given as “binds”.
